Results reported in publication PMC6451326.
Results are given in words; binding and its absence hold for the method and conditions named. Binding seen in cells or lysates may run through a third protein. Some results given as binding are weak or reduced against the parent protein; the word gives no strength. For some assays here: Where a sequence is shown, tags or fusion partners need not be part of it.

The chains behind the UniProt entries cited, without tags or fusion partners.
UniProt Q16637: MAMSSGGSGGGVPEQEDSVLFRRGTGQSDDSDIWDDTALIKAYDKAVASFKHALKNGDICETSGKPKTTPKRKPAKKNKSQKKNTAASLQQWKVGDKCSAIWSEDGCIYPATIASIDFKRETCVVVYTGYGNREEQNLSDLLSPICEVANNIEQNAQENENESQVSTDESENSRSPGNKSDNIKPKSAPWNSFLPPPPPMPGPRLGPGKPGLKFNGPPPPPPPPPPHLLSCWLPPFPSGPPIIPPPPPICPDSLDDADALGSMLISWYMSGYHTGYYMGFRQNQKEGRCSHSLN

T1: FLAG-tagged DGCR8 (UniProt Q8WYQ5)
T1 sequence: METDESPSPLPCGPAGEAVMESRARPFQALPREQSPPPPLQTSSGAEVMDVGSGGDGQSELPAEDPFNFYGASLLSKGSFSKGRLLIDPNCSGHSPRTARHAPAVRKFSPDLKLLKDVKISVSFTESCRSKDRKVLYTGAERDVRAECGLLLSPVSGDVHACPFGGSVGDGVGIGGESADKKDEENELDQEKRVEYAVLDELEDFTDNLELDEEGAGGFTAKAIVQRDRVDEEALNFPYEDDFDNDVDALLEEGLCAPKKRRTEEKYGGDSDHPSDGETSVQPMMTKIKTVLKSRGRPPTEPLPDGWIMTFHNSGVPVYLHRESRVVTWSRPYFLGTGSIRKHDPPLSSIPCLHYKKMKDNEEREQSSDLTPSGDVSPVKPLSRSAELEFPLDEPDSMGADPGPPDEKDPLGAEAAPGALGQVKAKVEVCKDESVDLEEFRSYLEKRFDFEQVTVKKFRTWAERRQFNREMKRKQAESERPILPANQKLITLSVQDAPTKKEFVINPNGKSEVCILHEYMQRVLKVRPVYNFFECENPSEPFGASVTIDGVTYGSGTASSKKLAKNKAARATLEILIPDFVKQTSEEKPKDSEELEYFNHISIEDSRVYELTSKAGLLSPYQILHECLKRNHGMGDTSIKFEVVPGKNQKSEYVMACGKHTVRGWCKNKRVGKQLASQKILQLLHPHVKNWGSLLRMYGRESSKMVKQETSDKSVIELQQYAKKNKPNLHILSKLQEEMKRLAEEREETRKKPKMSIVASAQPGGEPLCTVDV

B1: Drosha (enzyme, UniProt Q9NRR4 1-1374)
chain: MMQGNTCHRMSFHPGRGCPRGRGGHGARPSAPSFRPQNLRLLHPQQPPVQYQYEPPSAPSTTFSNSPAPNFLPPRPDFVPFPPPMPPSAQGPLPPCPIRPPFPNHQMRHPFPVPPCFPPMPPPMPCPNNPPVPGAPPGQGTFPFMMPPPSMPHPPPPPVMPQQVNYQYPPGYSHHNFPPPSFNSFQNNPSSFLPSANNSSSPHFRHLPPYPLPKAPSERRSPERLKHYDDHRHRDHSHGRGERHRSLDRRERGRSPDRRRQDSRYRSDYDRGRTPSRHRSYERSRERERERHRHRDNRRSPSLERSYKKEYKRSGRSYGLSVVPEPAGCTPELPGEIIKNTDSWAPPLEIVNHRSPSREKKRARWEEEKDRWSDNQSSGKDKNYTSIKEKEPEETMPDKNEEEEEELLKPVWIRCTHSENYYSSDPMDQVGDSTVVGTSRLRDLYDKFEEELGSRQEKAKAARPPWEPPKTKLDEDLESSSESECESDEDSTCSSSSDSEVFDVIAEIKRKKAHPDRLHDELWYNDPGQMNDGPLCKCSAKARRTGIRHSIYPGEEAIKPCRPMTNNAGRLFHYRITVSPPTNFLTDRPTVIEYDDHEYIFEGFSMFAHAPLTNIPLCKVIRFNIDYTIHFIEEMMPENFCVKGLELFSLFLFRDILELYDWNLKGPLFEDSPPCCPRFHFMPRFVRFLPDGGKEVLSMHQILLYLLRCSKALVPEEEIANMLQWEELEWQKYAEECKGMIVTNPGTKPSSVRIDQLDREQFNPDVITFPIIVHFGIRPAQLSYAGDPQYQKLWKSYVKLRHLLANSPKVKQTDKQKLAQREEALQKIRQKNTMRREVTVELSSQGFWKTGIRSDVCQHAMMLPVLTHHIRYHQCLMHLDKLIGYTFQDRCLLQLAMTHPSHHLNFGMNPDHARNSLSNCGIRQPKYGDRKVHHMHMRKKGINTLINIMSRLGQDDPTPSRINHNERLEFLGDAVVEFLTSVHLYYLFPSLEEGGLATYRTAIVQNQHLAMLAKKLELDRFMLYAHGPDLCRESDLRHAMANCFEALIGAVYLEGSLEEAKQLFGRLLFNDPDLREVWLNYPLHPLQLQEPNTDRQLIETSPVLQKLTEFEEAIGVIFTHVRLLARAFTLRTVGFNHLTLGHNQRMEFLGDSIMQLVATEYLFIHFPDHHEGHLTLLRSSLVNNRTQAKVAEELGMQEYAITNDKTKRPVALRTKTLADLLESFIAALYIDKDLEYVHTFMNVCFFPRLKEFILNQDWNDPKSQLQQCCLTLRTEGKEPDIPLYKTLQTVGPSHARTYTVAVYFKGERIGCGKGPSIQQAEMGAAMDALEKYNFPQMAHQKRFIERKYRQELKEMRWEREHQEREPDETEDIKK

Columns and labels:
FLAG-tagged DGCR8 = molecular target: T1, FLAG-tagged DGCR8; assay: co-IP; HeLa cells transfected with FLAG-DGCR8 and lysed in KCl lysis buffer (20 mM Tris pH 8.0, 100 mM KCl, 0.2 mM EDTA); IP with 3 ug FLAG or control mouse antibody, protein G beads, three washes with KCl lysis buffer, western blot
[1] = molecular target: survival of motor neuron protein (SMN) (human (endogenous in HeLa)) (UniProt Q16637); assay: co-IP; HeLa RIPA lysate incubated with 4 ug mouse anti-SMN or control mouse antibody, captured on protein G beads, washed five times with RIPA, western blot; for coilin the lysate came from untreated cells or cells treated with 9 uM etoposide for 48 h

Row | Molecule | binding (FLAG-tagged DGCR8) | binding [1]
1 | survival of motor neuron protein (SMN) (from UniProt Q16637 1-294) | binds | 
2 | B1 |  | binds weakly
